# Experimental data: the supplement of paper PMC10032668
# The chains behind the UniProt entries cited, without tags or fusion partners.
# TPX2, Q9ULW0, UniProt Q9ULW0, whole entry: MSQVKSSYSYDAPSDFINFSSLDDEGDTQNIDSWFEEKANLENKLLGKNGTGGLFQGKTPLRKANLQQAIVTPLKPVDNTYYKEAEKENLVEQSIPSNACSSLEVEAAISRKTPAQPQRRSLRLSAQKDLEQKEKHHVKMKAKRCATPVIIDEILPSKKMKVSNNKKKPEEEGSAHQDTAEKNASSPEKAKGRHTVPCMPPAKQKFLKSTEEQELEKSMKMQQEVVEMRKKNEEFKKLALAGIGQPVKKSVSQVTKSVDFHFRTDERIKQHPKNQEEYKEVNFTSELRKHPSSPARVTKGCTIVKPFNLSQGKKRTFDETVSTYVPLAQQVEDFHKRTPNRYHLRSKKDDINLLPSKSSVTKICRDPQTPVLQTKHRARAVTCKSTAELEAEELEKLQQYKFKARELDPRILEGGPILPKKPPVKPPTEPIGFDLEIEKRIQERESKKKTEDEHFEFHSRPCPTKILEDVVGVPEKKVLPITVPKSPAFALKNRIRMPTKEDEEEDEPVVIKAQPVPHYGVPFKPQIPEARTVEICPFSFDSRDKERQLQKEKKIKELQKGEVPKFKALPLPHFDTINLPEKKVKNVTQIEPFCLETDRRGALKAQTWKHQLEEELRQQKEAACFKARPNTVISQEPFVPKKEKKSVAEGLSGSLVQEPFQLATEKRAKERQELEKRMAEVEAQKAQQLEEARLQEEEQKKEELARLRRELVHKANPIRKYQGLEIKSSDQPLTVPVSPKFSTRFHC
# UFM1, P61960, UniProt P61960, whole entry: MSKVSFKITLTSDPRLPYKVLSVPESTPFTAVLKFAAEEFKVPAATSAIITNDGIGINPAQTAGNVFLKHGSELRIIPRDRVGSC
# The other results are listed elsewhere or left out. Only hits are listed; about a third recur on repeated control peptides.
# How the values were obtained:
# Experiment in all cases: PRISMA enrichment of interactor (LFQ) in peptide spot vs all other peptide spots (log2 fold change); higher = stronger / more specific binding of the interactor to the peptide
# PPIL2, Q13356 = target: PPIL2, Q13356
# Description: (§1)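 PRISMA: 221 full-length sORF-encoded peptides (3-15 aa), plus SOS1/GLUT1 control peptides, were spot-synthesized on cellulose membranes in triplicate. Membranes were incubated with HEK293T lysate, and bound proteins were identified by LC-MS/MS with LFQ. Enrichment is the log2 fold change versus all other peptide spots; only significant interactors are listed (cutoff c=6, x0=2.8).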
# PPP1R10, Q96QC0 = target: PPP1R10, Q96QC0
# Description: as §1
# PRRC2A, P48634 = target: PRRC2A, P48634
# Description: as §1
# PSPC1, Q8WXF1 = target: PSPC1, Q8WXF1
# Description: as §1
# PSRC1, Q6PGN9 = target: PSRC1, Q6PGN9
# Description: as §1
# PTBP1, P26599 = target: PTBP1, P26599
# Description: as §1
# RAE1, P78406 = target: RAE1, P78406
# Description: as §1
# RBM14, Q96PK6 = target: RBM14, Q96PK6
# Description: as §1
# RBM27, Q9P2N5 = target: RBM27, Q9P2N5
# Description: as §1
# RBM33, Q96EV2 = target: RBM33, Q96EV2
# Description: as §1
# RPUSD3, Q6P087 = target: RPUSD3, Q6P087
# Description: as §1
# RRP36, Q96EU6 = target: RRP36, Q96EU6
# Description: as §1
# RTRAF, Q9Y224 = target: RTRAF, Q9Y224
# Description: as §1
# SAFB, Q15424 = target: SAFB, Q15424
# Description: as §1
# SBDS, Q9Y3A5 = target: SBDS, Q9Y3A5
# Description: as §1
# SEH1L, Q96EE3 = target: SEH1L, Q96EE3
# Description: as §1
# SERF2, P84101 = target: SERF2, P84101
# Description: as §1
# SF1, Q15637 = target: SF1, Q15637
# Description: as §1
# SFPQ, P23246 = target: SFPQ, P23246
# Description: as §1
# SLC9A3R2, Q15599 = target: SLC9A3R2, Q15599
# Description: as §1
# SMNDC1, O75940 = target: SMNDC1, O75940
# Description: as §1
# SNW1, Q13573 = target: SNW1, Q13573
# Description: as §1
# SRI, P30626 = target: SRI, P30626
# Description: as §1
# SSBP1, Q04837 = target: SSBP1, Q04837
# Description: as §1
# STRBP, Q96SI9 = target: STRBP, Q96SI9
# Description: as §1
# TACO1, Q9BSH4 = target: TACO1, Q9BSH4
# Description: as §1
# TAOK2, Q9UL54 = target: TAOK2, Q9UL54
# Description: as §1
# TIA1, P31483 = target: TIA1, P31483
# Description: as §1
# TIAL1, Q01085 = target: TIAL1, Q01085
# Description: as §1
# TIPRL, O75663 = target: TIPRL, O75663
# Description: as §1
# TOMM34, Q15785 = target: TOMM34, Q15785
# Description: as §1
# TPX2, Q9ULW0 = target: TPX2, Q9ULW0
# Description: as §1
# TRPT1, Q86TN4 = target: TRPT1, Q86TN4
# Description: as §1
# TSFM, P43897 = target: TSFM, P43897
# Description: as §1
# UFM1, P61960 = target: UFM1, P61960
# Description: as §1
# VRK1, Q99986 = target: VRK1, Q99986
# Description: as §1
# WDR11, Q9BZH6 = target: WDR11, Q9BZH6
# Description: as §1
# YRDC, Q86U90 = target: YRDC, Q86U90
# Description: as §1
# YTHDF3, Q7Z739 = target: YTHDF3, Q7Z739
# Description: as §1
# ZNF512, Q96ME7 = target: ZNF512, Q96ME7
# Description: as §1
# ZNF638, Q14966 = target: ZNF638, Q14966
# Description: as §1
# ZNF768, Q9H5H4 = target: ZNF768, Q9H5H4
# Description: as §1
binder,measurement,setting,value
MMFWTEF [SH3D19],PRISMA enrichment of interactor (log2),"PPIL2, Q13356",7.04
same,PRISMA enrichment of interactor (log2),"PPP1R10, Q96QC0",5.71
same,PRISMA enrichment of interactor (log2),"PRRC2A, P48634",4.12
same,PRISMA enrichment of interactor (log2),"PSPC1, Q8WXF1",7.36
same,PRISMA enrichment of interactor (log2),"PSRC1, Q6PGN9",4.67
same,PRISMA enrichment of interactor (log2),"PTBP1, P26599",4.33
same,PRISMA enrichment of interactor (log2),"RAE1, P78406",5.67
same,PRISMA enrichment of interactor (log2),"RBM14, Q96PK6",6.01
same,PRISMA enrichment of interactor (log2),"RBM27, Q9P2N5",5.12
same,PRISMA enrichment of interactor (log2),"RBM33, Q96EV2",6.16
same,PRISMA enrichment of interactor (log2),"RPUSD3, Q6P087",4.94
same,PRISMA enrichment of interactor (log2),"RRP36, Q96EU6",4.52
same,PRISMA enrichment of interactor (log2),"RTRAF, Q9Y224",5.04
same,PRISMA enrichment of interactor (log2),"SAFB, Q15424",5.95
same,PRISMA enrichment of interactor (log2),"SBDS, Q9Y3A5",5.17
same,PRISMA enrichment of interactor (log2),"SEH1L, Q96EE3",5.42
same,PRISMA enrichment of interactor (log2),"SERF2, P84101",5.02
same,PRISMA enrichment of interactor (log2),"SF1, Q15637",6.02
same,PRISMA enrichment of interactor (log2),"SFPQ, P23246",5.24
same,PRISMA enrichment of interactor (log2),"SLC9A3R2, Q15599",6.49
same,PRISMA enrichment of interactor (log2),"SMNDC1, O75940",6.22
same,PRISMA enrichment of interactor (log2),"SNW1, Q13573",5.16
same,PRISMA enrichment of interactor (log2),"SRI, P30626",4.69
same,PRISMA enrichment of interactor (log2),"SSBP1, Q04837",5.07
same,PRISMA enrichment of interactor (log2),"STRBP, Q96SI9",6.11
same,PRISMA enrichment of interactor (log2),"TACO1, Q9BSH4",5.26
same,PRISMA enrichment of interactor (log2),"TAOK2, Q9UL54",4.15
same,PRISMA enrichment of interactor (log2),"TIA1, P31483",6.22
same,PRISMA enrichment of interactor (log2),"TIAL1, Q01085",5.33
same,PRISMA enrichment of interactor (log2),"TIPRL, O75663",5.08
same,PRISMA enrichment of interactor (log2),"TOMM34, Q15785",6.77
same,PRISMA enrichment of interactor (log2),"TPX2, Q9ULW0",6.17
same,PRISMA enrichment of interactor (log2),"TRPT1, Q86TN4",3.89
same,PRISMA enrichment of interactor (log2),"TSFM, P43897",4.95
same,PRISMA enrichment of interactor (log2),"UFM1, P61960",4.69
same,PRISMA enrichment of interactor (log2),"VRK1, Q99986",5.12
same,PRISMA enrichment of interactor (log2),"WDR11, Q9BZH6",6.29
same,PRISMA enrichment of interactor (log2),"YRDC, Q86U90",5.03
same,PRISMA enrichment of interactor (log2),"YTHDF3, Q7Z739",4.75
same,PRISMA enrichment of interactor (log2),"ZNF512, Q96ME7",4.65
same,PRISMA enrichment of interactor (log2),"ZNF638, Q14966",7.11
same,PRISMA enrichment of interactor (log2),"ZNF768, Q9H5H4",6.27

# Exported with bars between the fields: part of the list above.
binder | measurement | setting | value
MMFWTEF [SH3D19] | PRISMA enrichment of interactor (log2) | PTBP1, P26599 | 4.33
same | PRISMA enrichment of interactor (log2) | RAE1, P78406 | 5.67
same | PRISMA enrichment of interactor (log2) | RBM14, Q96PK6 | 6.01
same | PRISMA enrichment of interactor (log2) | RBM27, Q9P2N5 | 5.12
same | PRISMA enrichment of interactor (log2) | RBM33, Q96EV2 | 6.16
same | PRISMA enrichment of interactor (log2) | RPUSD3, Q6P087 | 4.94
same | PRISMA enrichment of interactor (log2) | RRP36, Q96EU6 | 4.52
same | PRISMA enrichment of interactor (log2) | RTRAF, Q9Y224 | 5.04
same | PRISMA enrichment of interactor (log2) | SAFB, Q15424 | 5.95
